± gives the standard deviation of the averaged measurements. Some of the results follow.
Compound: Nc1nc2c(ncn2[C@@H]2O[C@H](COP(=O)(O)OP(=O)(O)OP(=O)(O)O)[C@@H](O)[C@H]2O)c(=O)[nH]1 [guanosine triphosphate]
Experiment: NP40-soluble protein abundance relative to vehicle (solubility fold change) (ratio); higher = more soluble protein in presence of GTP
Method: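 Solubility proteome profiling in Jurkat crude lysate. Lysate was treated with Mg-GTP (0.1-10 mM) for 10 min at room temperature and 3 min at 37 °C, then solubilised with 0.8% NP40 and benzonase, followed by ultracentrifugation. Proteins were quantified by TMT10 LC-MS/MS; the value is the NP40-soluble abundance relative to the NP40-processed vehicle, from 3 independent experiments.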

By UniProt entry, the sequences of proteins in these tests, tags left out. Where a name states a change or a piece, a line headed by the entry shows the natural chain unless it says otherwise.
UniProt Q96DT7: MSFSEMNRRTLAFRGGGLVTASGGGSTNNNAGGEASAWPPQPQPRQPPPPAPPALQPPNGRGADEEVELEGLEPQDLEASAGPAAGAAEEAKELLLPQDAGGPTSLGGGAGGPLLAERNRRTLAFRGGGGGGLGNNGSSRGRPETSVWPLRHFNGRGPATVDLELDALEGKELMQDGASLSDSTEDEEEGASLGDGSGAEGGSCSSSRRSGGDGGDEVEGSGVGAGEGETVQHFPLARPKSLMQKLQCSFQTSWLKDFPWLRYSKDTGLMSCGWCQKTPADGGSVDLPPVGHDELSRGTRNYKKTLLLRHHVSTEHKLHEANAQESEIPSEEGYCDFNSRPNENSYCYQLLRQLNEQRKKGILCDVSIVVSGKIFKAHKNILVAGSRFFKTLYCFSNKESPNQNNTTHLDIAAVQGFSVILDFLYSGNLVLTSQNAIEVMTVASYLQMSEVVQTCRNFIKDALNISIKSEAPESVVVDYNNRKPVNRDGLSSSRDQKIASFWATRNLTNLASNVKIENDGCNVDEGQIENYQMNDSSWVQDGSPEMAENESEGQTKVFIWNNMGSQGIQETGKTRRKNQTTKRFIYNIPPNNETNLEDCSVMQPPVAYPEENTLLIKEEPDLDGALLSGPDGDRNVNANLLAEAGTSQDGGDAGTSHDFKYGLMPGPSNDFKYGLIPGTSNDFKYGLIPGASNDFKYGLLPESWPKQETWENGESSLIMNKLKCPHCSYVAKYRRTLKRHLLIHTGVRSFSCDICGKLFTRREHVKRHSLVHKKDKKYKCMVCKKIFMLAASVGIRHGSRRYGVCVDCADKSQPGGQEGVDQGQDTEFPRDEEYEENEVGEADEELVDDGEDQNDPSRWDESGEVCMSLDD
UniProt Q92576, whole entry: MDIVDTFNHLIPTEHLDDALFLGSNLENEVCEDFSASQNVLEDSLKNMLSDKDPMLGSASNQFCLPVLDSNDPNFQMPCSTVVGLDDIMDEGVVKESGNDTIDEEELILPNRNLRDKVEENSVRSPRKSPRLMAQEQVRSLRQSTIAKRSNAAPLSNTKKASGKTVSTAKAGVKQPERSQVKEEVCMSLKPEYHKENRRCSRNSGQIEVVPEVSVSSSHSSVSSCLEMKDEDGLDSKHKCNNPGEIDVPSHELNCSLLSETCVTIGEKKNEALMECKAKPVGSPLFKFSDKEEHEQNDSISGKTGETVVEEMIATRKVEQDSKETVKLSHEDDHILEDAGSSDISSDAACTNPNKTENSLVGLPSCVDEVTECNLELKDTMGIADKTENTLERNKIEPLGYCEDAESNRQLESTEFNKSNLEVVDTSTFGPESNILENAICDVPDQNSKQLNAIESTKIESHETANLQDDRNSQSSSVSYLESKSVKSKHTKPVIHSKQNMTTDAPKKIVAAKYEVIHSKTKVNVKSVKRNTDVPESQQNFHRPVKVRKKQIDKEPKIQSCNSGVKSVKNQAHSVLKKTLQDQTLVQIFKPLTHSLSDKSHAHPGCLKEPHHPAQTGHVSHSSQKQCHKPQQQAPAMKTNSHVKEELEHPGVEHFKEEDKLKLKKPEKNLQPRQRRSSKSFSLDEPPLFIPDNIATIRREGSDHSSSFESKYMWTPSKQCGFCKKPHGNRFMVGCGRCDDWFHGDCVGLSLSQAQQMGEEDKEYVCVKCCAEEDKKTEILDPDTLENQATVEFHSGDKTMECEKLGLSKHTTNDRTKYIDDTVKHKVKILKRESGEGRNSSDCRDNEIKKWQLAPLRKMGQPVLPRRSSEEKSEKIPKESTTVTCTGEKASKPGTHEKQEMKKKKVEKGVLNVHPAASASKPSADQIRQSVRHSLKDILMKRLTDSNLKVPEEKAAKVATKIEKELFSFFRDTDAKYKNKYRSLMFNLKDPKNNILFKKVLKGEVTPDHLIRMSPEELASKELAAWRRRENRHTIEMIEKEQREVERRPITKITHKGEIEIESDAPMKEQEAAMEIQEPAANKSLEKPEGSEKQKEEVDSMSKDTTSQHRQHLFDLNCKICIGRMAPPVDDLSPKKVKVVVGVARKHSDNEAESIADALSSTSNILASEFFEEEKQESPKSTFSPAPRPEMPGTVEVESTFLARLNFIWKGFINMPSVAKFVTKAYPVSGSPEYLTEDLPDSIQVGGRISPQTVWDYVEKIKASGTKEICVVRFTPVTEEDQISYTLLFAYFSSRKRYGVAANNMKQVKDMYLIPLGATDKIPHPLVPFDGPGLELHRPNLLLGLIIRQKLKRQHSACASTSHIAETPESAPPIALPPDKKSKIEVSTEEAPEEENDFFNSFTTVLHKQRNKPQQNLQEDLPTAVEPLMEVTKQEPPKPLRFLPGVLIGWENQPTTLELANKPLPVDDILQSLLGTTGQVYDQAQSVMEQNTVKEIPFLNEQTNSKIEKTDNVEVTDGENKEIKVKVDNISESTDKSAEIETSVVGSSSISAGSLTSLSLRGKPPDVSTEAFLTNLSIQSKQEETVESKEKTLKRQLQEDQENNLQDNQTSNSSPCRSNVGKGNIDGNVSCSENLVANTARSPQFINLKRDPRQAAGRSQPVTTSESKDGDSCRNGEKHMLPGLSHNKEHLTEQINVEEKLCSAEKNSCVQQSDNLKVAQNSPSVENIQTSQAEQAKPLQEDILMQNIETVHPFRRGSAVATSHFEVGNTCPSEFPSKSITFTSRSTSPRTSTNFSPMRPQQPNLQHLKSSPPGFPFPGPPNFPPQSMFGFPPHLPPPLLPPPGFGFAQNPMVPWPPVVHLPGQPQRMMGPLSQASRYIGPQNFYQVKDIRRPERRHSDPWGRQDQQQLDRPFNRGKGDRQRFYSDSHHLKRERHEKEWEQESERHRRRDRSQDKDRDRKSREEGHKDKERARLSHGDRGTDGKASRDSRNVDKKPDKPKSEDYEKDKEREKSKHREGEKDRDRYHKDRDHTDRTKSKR
UniProt Q96HN2, whole entry: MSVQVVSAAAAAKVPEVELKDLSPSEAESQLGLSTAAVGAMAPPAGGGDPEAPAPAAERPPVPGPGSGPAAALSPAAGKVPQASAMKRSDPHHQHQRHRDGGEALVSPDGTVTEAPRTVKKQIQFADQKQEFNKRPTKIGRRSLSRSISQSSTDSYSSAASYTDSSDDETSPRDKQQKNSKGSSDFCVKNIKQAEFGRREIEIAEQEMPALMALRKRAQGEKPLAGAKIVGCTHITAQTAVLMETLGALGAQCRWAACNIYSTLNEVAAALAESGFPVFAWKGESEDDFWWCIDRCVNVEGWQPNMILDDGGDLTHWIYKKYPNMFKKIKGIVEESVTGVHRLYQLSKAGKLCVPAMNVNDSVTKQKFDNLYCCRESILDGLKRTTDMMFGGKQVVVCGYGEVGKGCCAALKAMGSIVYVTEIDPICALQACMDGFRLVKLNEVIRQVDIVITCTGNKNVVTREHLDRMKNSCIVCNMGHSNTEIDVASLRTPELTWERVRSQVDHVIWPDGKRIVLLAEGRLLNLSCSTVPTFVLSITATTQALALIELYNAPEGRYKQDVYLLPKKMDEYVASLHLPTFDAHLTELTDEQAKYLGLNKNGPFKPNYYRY
UniProt Q92900: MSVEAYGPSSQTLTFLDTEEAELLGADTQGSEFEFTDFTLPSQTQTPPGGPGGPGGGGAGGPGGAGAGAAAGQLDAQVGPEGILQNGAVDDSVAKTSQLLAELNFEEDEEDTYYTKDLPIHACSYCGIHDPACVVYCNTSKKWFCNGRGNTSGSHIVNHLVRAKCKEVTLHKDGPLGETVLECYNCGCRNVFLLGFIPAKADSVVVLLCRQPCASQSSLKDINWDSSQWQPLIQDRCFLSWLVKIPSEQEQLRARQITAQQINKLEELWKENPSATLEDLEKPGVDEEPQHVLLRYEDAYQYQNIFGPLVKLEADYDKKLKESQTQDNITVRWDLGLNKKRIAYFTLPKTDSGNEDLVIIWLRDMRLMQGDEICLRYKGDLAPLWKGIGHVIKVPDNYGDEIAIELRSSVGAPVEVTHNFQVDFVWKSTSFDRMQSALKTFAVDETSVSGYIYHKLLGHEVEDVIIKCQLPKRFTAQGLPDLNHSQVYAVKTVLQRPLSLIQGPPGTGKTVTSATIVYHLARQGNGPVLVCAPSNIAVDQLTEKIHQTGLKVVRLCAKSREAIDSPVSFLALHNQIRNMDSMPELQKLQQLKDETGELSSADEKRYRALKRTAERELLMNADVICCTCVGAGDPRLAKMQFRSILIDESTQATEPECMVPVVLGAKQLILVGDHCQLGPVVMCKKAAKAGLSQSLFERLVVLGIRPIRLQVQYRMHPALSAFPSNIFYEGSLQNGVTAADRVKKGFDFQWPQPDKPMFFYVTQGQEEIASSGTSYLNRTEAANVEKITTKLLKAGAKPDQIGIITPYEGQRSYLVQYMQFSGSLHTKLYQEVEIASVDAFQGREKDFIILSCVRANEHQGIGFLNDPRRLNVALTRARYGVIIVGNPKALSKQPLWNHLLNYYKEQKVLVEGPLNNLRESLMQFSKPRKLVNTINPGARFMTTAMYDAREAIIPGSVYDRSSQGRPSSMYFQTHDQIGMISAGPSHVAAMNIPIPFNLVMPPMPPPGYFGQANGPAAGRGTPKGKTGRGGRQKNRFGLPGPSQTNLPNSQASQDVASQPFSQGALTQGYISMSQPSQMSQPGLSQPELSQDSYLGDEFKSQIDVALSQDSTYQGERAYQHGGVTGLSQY

Question: How did the NP40-soluble protein abundance (concentration: 0.1mM) turn out when EAF1 (UniProt Q96JC9) was run?
Answer: 0.827 ± 0.036

Question: And the NP40-soluble protein abundance (concentration: 0.5mM)?
Answer: 0.865 ± 0.067

Question: And the NP40-soluble protein abundance (concentration: 1mM)?
Answer: 0.848 ± 0.071

Question: What about the NP40-soluble protein abundance (concentration: 2mM) of the same target?
Answer: 0.873 ± 0.07

Question: And the NP40-soluble protein abundance (concentration: 4mM)?
Answer: 0.812 ± 0.048

Question: And the NP40-soluble protein abundance (concentration: 6mM)?
Answer: 0.858 ± 0.067

Question: What about the NP40-soluble protein abundance (concentration: 8mM) of the same target?
Answer: 0.844 ± 0.078

Question: And the NP40-soluble protein abundance (concentration: 10mM)?
Answer: 0.896 ± 0.06

Question: Which results are given for UniProt Q96DT7 and related entries?
Answer: NP40-soluble protein abundance (concentration: 0.1mM): 0.904 ± 0.14; NP40-soluble protein abundance (concentration: 0.5mM): 1 ± 0.11; NP40-soluble protein abundance (concentration: 1mM): 1.02 ± 0.11; NP40-soluble protein abundance (concentration: 2mM): 0.929 ± 0.18; NP40-soluble protein abundance (concentration: 4mM): 0.917 ± 0.11; NP40-soluble protein abundance (concentration: 6mM): 1.03 ± 0.12; NP40-soluble protein abundance (concentration: 8mM): 1.1 ± 0.085; NP40-soluble protein abundance (concentration: 10mM): 1.03 ± 0.13

Question: How did the NP40-soluble protein abundance (concentration: 0.1mM) turn out when UniProt Q92576 and related entries was run?
Answer: 1 ± 0.014

Question: What about the NP40-soluble protein abundance (concentration: 0.5mM) of the same target?
Answer: 1.025 ± 0.0078

Question: And the NP40-soluble protein abundance (concentration: 1mM)?
Answer: 1.06 ± 0.012

Question: And the NP40-soluble protein abundance (concentration: 2mM)?
Answer: 1.08 ± 0.058

Question: What about the NP40-soluble protein abundance (concentration: 4mM) of the same target?
Answer: 1.1 ± 0.046

Question: And the NP40-soluble protein abundance (concentration: 6mM)?
Answer: 1.12 ± 0.043

Question: What about the NP40-soluble protein abundance (concentration: 8mM) of the same target?
Answer: 1.18 ± 0.13

Question: What about the NP40-soluble protein abundance (concentration: 10mM) of the same target?
Answer: 1.18 ± 0.12

Question: What does the source list for UniProt Q96HN2 and related entries?
Answer: NP40-soluble protein abundance (concentration: 0.1mM): 1.02 ± 0.078; NP40-soluble protein abundance (concentration: 0.5mM): 0.993 ± 0.041; NP40-soluble protein abundance (concentration: 1mM): 1.02 ± 0.025; NP40-soluble protein abundance (concentration: 2mM): 1.03 ± 0.045; NP40-soluble protein abundance (concentration: 4mM): 1.01 ± 0.067; NP40-soluble protein abundance (concentration: 6mM): 1.03 ± 0.067; NP40-soluble protein abundance (concentration: 8mM): 1.04 ± 0.043; NP40-soluble protein abundance (concentration: 10mM): 1 ± 0.022

Question: For UniProt Q92900 and related entries, which NP40-soluble protein abundance (concentration: 0.1mM) is on record?
Answer: 1.01 ± 0.025

Question: And the NP40-soluble protein abundance (concentration: 0.5mM)?
Answer: 1.01 ± 0.04

Question: And the NP40-soluble protein abundance (concentration: 1mM)?
Answer: 0.936 ± 0.034

Question: What about the NP40-soluble protein abundance (concentration: 2mM) of the same target?
Answer: 0.971 ± 0.065

Question: What about the NP40-soluble protein abundance (concentration: 4mM) of the same target?
Answer: 0.957 ± 0.049

Question: What about the NP40-soluble protein abundance (concentration: 6mM) of the same target?
Answer: 0.937 ± 0.057

Question: What about the NP40-soluble protein abundance (concentration: 8mM) of the same target?
Answer: 0.898 ± 0.035

Question: And the NP40-soluble protein abundance (concentration: 10mM)?
Answer: 0.884 ± 0.011
